Reference: publication PMC6883375, “Enolase From Aspergillus fumigatus Is a Moonlighting Protein That Binds the Human Plasma Complement Proteins Factor H, FHL-1, C4BP, and Plasminogen” (Frontiers in Immunology, 2019)
These are yes or no findings as the source states them, for the method shown. Some binding calls cover weakened binding; strength is not graded here.

By UniProt entry, the sequences of proteins in these tests, tags left out. Where a name states a change or a piece, a line headed by the entry shows the natural chain unless it says otherwise. Residues count along the entry.
UniProt P04003: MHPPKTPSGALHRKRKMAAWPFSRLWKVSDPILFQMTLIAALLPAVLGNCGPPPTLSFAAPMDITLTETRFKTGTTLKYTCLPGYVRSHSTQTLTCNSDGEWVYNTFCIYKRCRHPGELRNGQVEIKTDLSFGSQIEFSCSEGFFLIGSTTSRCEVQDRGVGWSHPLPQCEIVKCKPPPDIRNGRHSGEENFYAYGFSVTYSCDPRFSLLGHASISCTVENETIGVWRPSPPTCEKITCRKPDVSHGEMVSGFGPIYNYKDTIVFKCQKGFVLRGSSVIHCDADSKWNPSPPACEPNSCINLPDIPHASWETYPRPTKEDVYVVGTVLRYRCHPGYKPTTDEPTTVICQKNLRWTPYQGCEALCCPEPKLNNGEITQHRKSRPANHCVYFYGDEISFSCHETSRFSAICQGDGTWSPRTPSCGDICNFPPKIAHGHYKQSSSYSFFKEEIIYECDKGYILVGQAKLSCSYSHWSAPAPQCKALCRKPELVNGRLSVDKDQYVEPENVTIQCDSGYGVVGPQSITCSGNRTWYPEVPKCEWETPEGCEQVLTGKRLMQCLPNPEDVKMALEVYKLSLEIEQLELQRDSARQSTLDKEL
UniProt Q96X30: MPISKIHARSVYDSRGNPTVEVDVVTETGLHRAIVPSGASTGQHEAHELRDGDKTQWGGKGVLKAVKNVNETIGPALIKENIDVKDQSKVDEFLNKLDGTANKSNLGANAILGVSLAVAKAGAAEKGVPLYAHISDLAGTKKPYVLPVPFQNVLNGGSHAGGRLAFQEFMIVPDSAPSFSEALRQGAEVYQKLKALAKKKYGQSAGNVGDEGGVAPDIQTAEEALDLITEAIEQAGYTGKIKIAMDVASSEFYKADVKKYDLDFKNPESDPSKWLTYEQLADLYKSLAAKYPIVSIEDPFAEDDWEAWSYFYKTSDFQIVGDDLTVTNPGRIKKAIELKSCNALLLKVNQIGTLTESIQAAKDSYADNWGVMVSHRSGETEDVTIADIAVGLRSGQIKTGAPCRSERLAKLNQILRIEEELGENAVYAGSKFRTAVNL
UniProt P08603, residues 19-1231: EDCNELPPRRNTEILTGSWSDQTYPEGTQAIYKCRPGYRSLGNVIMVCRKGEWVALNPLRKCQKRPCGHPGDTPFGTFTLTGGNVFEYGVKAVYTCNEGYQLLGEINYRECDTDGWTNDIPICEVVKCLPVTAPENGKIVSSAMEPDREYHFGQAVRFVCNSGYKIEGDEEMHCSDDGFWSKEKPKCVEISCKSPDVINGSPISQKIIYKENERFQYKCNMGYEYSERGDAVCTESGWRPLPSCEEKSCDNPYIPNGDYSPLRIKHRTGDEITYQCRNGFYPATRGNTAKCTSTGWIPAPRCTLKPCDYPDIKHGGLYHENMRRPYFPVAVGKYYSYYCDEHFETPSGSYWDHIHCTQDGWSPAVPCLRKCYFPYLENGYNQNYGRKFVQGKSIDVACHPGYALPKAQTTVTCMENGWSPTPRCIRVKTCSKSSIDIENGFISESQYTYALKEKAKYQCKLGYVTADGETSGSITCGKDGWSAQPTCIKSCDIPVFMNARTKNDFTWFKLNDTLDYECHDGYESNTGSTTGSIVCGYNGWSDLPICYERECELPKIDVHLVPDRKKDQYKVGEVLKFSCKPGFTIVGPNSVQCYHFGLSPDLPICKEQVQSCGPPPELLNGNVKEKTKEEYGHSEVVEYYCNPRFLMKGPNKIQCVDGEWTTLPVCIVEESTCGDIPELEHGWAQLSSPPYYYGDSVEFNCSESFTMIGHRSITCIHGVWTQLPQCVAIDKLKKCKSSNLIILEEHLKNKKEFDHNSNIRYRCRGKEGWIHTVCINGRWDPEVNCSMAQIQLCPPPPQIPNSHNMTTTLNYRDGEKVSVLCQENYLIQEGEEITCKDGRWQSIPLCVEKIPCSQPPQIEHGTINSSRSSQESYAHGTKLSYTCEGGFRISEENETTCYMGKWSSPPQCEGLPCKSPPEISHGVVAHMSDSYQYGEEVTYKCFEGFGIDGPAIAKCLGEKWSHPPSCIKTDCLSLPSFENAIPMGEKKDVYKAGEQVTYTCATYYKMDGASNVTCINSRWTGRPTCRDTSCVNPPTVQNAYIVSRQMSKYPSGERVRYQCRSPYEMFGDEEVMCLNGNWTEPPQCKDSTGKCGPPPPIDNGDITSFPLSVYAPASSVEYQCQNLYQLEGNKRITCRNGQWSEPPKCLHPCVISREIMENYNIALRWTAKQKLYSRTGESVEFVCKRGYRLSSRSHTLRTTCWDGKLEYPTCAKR

Legend:
[1] = biological target: human C4b binding protein (C4BP) (human) (UniProt P04003); experiment: ELISA; factor H, FHL-1, C4BP, plasminogen or gelatin (1 μg/well in DPBS) immobilised, blocked with 0.2% gelatin; AfEno1 at increasing amounts added 1 h at RT; detected with rabbit AfEno1 antiserum; both purified
[2] = biological target: Aspergillus fumigatus enolase (AfEno1), recombinant His-tagged (Aspergillus fumigatus) (UniProt Q96X30); experiment: ELISA; AfEno1 immobilised; normal human serum (NHS; 10 mM EDTA for C4BP and plasminogen) at increasing amounts added 1 h at RT; bound regulator detected with specific antiserum; only the target purified
[3] = biological target: Aspergillus fumigatus enolase (AfEno1), recombinant His-tagged (Aspergillus fumigatus) (UniProt Q96X30); experiment: ELISA; AfEno1 or gelatin (1 μg/well in DPBS) immobilised on microtiter plate, blocked with 0.2% gelatin; factor H, FHL-1, factor H/FHL-1 deletion mutants, C4BP or plasminogen added 1 h at RT; detected with specific antisera; both purified
[4] = biological target: Aspergillus fumigatus enolase (AfEno1), recombinant His-tagged (Aspergillus fumigatus) (UniProt Q96X30); experiment: BLI; His-tagged AfEno1 on Ni-NTA biosensors; factor H, C4BP or plasminogen as analyte; DPBS with 0.001% gelatin, RT; association 250 s, dissociation 250 s; 1:1 model; heat inactivated regulators as non-binding control; both purified

“Aspergillus fumigatus enolase (AfEno1), recombinant His-tagged (from UniProt Q96X30 1-438)” was tested, and the binding [1] was “binds”.
With “human C4b binding protein (C4BP) (from UniProt P04003 49-597; P20851 18-252) (complex)” the binding [2] was “binds” and the binding [3] was “binds”.
“human factor H (from UniProt P08603 19-1231)” was tested, and the binding [4] was “no binding (condition: heat-inactivated (95°C) factor H)”.
